Our source for the binding values is publication PMC11491553, “Structural insights into the mechanotransducing mechanism of FtsEX in cell division” (MedComm, 2024).

No constants are given. Whether binding was seen depends on the method and setting. Some entries that bind do so weakly or less than the wild type. For some of these results: Tags and fused reporters may be left off the sequences shown.

Assay [1] addresses T1, FtsE(E163Q) (E. coli K12) (UniProt P0A9R7).
T1 sequence: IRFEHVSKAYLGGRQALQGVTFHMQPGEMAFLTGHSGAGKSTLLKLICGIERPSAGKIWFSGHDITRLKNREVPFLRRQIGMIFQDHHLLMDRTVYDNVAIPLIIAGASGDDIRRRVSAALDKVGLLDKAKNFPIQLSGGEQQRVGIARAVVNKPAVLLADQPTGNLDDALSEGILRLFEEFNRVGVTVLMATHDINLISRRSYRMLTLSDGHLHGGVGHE
The experiment in a line: cryo-EM structure; FtsE(E163Q)X with endogenously captured ATP, reconstituted into lipid nanodiscs (MSP1D1, E. coli polar extract, 1:2:200); 2.6 Å; both purified.

In assay [2] the target is T2, EYFP–FtsE(E163Q) (E. coli) (UniProt P0A9R7).
T2 sequence: T1 sequence
Description: FRET or BRET; purified EYFP–FtsE (acceptor) with FtsX–ECFP (donor) in a black 96-well plate; excitation 458 nm, emission 450-600 nm; both purified. Background: BRET reads energy transfer from a luciferase to a nearby fluorophore.

For assay [3], the target named is T3, FtsE(E163Q)X complex (E. coli K12) (UniProt P0A9R7+P0AC30).
T3 sequence 1: T1 sequence
T3 sequence 2: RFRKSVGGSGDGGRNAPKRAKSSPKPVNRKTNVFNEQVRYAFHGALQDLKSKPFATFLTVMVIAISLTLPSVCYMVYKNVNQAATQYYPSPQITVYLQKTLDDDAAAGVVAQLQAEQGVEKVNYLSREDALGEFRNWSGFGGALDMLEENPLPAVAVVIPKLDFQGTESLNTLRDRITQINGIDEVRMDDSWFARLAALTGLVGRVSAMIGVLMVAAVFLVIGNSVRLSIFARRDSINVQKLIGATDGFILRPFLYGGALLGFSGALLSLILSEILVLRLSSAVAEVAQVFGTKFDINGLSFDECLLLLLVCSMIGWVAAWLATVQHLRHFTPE
Description: cryo-EM structure; FtsE(E163Q)X-EnvC complex; EnvC(35-419) incubated with FtsE(E163Q)X at 10:1, room temperature, 1 h, recaptured by nickel affinity; 4.25 Å; both purified.

Another assay concerns the target T4, FtsX (E. coli K12) (UniProt P0AC30).
T4 sequence: T3 sequence 2
The assay is described as above.

B1: FtsX (natural protein, E. coli K12)
chain: T3 sequence 2
notes: FtsX, E. coli K12, integral membrane protein of FtsEX (four transmembrane helices, periplasmic loop domain); gene amplified from genomic DNA; The gene was amplified from genomic DNA and no truncation or tag on FtsX is mentioned; also called FtsX of FtsEX; TMDs and PLDs
For the molecule B1, the binding result in assay [1] was “binds”.

B2: FtsX–ECFP (protein, UniProt P0AC30 19-352)
chain: T3 sequence 2
On to B2, for which the binding entry in assay [2] was “binds”.

B3: EnvC(35-419) (domain or fragment, UniProt P37690 35-419)
chain: DERDQLKSIQADIAAKERAVRQKQQQRASLLAQLKKQEEAISEATRKLRETQNTLNQLNKQIDEMNASIAKLEQQKAAQERSLAAQLDAAFRQGEHTGIQLILSGEESQRGQRLQAYFGYLNQARQETIAQLKQTREEVAMQRAELEEKQSEQQTLLYEQRAQQAKLTQALNERKKTLAGLESSIQQGQQQLSELRANESRLRNSIARAEAAAKARAEREAREAQAVRDRQKEATRKGTTYKPTESEKSLMSRTGGLGAPRGQAFWPVRGPTLHRYGEQLQGELRWKGMVIGASEGTEVKAIADGRVILADWLQGYGLVVVVEHGKGDMSLYGYNQSALVSVGSQVRAGQPIALVGSSGGQGRPSLYFEIRRQGQAVNPQPWLGR
Consider B3, for which the binding entry (in assay [3]; with FtsX (E. coli K12)) was “binds” each time.
